At least one compound was matched to its structure with a doubt left.
What was measured:
Assay type in all cases: physicochemical
[1] = Fluorescence (luminescent) lifetime of dyes and conjugates; conditions: Ethanol (Table 1)
Text: Typical assays based on the measurement of the fluorescence lifetime as a parameter include for example FRET (fluorescence resonance energy transfer) assays. The binding between a fluorescent donor labeled species (typically an antigen, or a ligand) and a fluorescent acceptor labeled species may be accompanied by a change in the intensity and/or the fluorescence lifetime. The lifetime can be measured using intensity-(Time corrlated single photon counting TCSPC) or phase-modulation-based methods (J. R. LAKOWICZ, PRINCIPLES OF FLUORESCENCE SPECTROSCOPY (2nd Ed. 1999)).

[2] = Fluorescence quantum yield (QY); conditions: Ethanol (Table 1)
[3] = Absorption and emission maxima (spectral properties); conditions: Ethanol
Text: The synthesis of representative dyes is provided in the Examples Section. The structures, absorption and emission data as well as the luminescent lifetime in different solvents of specific dyes are given in Table 1.

**Q.** Which results are given for `CCOC(=O)c1c(C)nn2c(=O)c3cc4c(c5cccc(c53)c12)N(C)C[N+](C)(C)C4` [Dye 7b]?
**A.** Lifetime [ns] [1]: 5.4 ns; (QY [%]) [2]: 59%; λ(abs) [nm] [3]: 421 nm; λ(fl) [nm] [3]: 492 nm
